Results as given in US7906486B2, “Method of treating or preventing tissue deterioration, injury or damage due to disease of mucosa” (SciClone Pharmaceuticals, Inc., priority 2007, dated 2011).
Values joined by “and” are separate entries in the source; they are usually repeats but may differ in a detail not shown here. Equal values may be shown once. The source gives many values for each of these; only a part stands here.

Assay: Weights and survival (Example 1, SCI-01)
Format: in vivo, Syrian Golden Hamsters
Procedure: All animals were weighed daily and their survival recorded, in order to assess possible differences in animal weight among treatment groups as an indication for mucositis severity and/or possible toxicity resulting from the treatments.
The mean daily percent weight change data was evaluated. The saline (PBS) treated control hamsters gained an average of 70.4% of their starting weight during the study. Hamsters in the group receiving SCV-07 at 1 ug/kg on days −1 to 16 gained an average of 68.4% of their starting weight during the study. Hamsters in the group receiving SCV-07 at 10 ug/kg on days −1 to 16 gained an average of 70.3% of their starting weight during the study. Hamsters in the group receiving SCV-07 at 100 ug/kg on days −1 to 16 gained an average of 82.0% of their starting weight during the study. The significance of these differences was evaluated by calculating the area-under-the-curve (AUC) for the weight gain of each animal, and then comparing the different treatment groups using a One-Way ANOVA test.

N[C@H](CCC(=O)N[C@@H](Cc1c[nH]c2ccccc12)C(=O)O)C(=O)O [SCV-07, γ-D-glutamyl-L-tryptophan]
Animal weight (Group 2, SCV-07 1 ug/kg sc qd, Day 0): 96 and 86 and 80 and 83 and 81
Animal weight (Group 2, SCV-07 1 ug/kg sc qd, Day 1): 98 and 86 and 79 and 83 and 88 and 81 and 78
Animal weight (Group 2, SCV-07 1 ug/kg sc qd, Day 2): 100 and 89 and 84 and 86 and 91 and 83
Animal weight (Group 2, SCV-07 1 ug/kg sc qd, Day 3): 101 and 91 and 88 and 86 and 93 and 84
Animal weight (Group 2, SCV-07 1 ug/kg sc qd, Day 4): 103 and 94 and 90 and 89 and 95 and 96 and 86 and 87
Animal weight (Group 2, SCV-07 1 ug/kg sc qd, Day 5): 109 and 97 and 91 and 94 and 100 and 89
Animal weight (Group 2, SCV-07 1 ug/kg sc qd, Day 6): 111 and 99 and 95 and 98 and 105 and 101 and 94 and 93
Animal weight (Group 2, SCV-07 1 ug/kg sc qd, Day 7): 114 and 99 and 96 and 100 and 103 and 104 and 94
Animal weight (Group 2, SCV-07 1 ug/kg sc qd, Day 8): 116 and 102 and 101 and 103 and 105 and 97 and 98
Animal weight (Group 2, SCV-07 1 ug/kg sc qd, Day 9): 118 and 104 and 101 and 107 and 99 and 100
Animal weight (Group 2, SCV-07 1 ug/kg sc qd, Day 10): 117 and 104 and 100 and 102 and 106 and 98 and 97
Animal weight (Group 2, SCV-07 1 ug/kg sc qd, Day 11): 122 and 109 and 104 and 105 and 111 and 102
Animal weight (Group 2, SCV-07 1 ug/kg sc qd, Day 12): 123 and 110 and 105 and 107 and 114
Animal weight (Group 2, SCV-07 1 ug/kg sc qd, Day 13): 122 and 110 and 104 and 109 and 112 and 111 and 108
Animal weight (Group 2, SCV-07 1 ug/kg sc qd, Day 14): 123 and 110 and 107 and 111 and 116 and 112 and 106
Animal weight (Group 2, SCV-07 1 ug/kg sc qd, Day 15): 123 and 110 and 111 and 117 and 112 and 109 and 106
Animal weight (Group 2, SCV-07 1 ug/kg sc qd, Day 16): 129 and 115 and 112 and 116 and 121 and 113 and 111
Animal weight (Group 2, SCV-07 1 ug/kg sc qd, Day 17): 126 and 114 and 108 and 112 and 117 and 113 and 109
Animal weight (Group 2, SCV-07 1 ug/kg sc qd, Day 18): 133 and 118 and 117 and 119 and 125 and 116 and 115
Animal weight (Group 2, SCV-07 1 ug/kg sc qd, Day 19): 136 and 121 and 118 and 123 and 127 and 120
Animal weight (Group 2, SCV-07 1 ug/kg sc qd, Day 20): 137 and 120 and 118 and 122 and 128 and 119
Animal weight (Group 2, SCV-07 1 ug/kg sc qd, Day 21): 139 and 122 and 121 and 123 and 131 and 120
Animal weight (Group 2, SCV-07 1 ug/kg sc qd, Day 22): 141 and 125 and 123 and 124 and 132 and 121
Animal weight (Group 2, SCV-07 1 ug/kg sc qd, Day 23): 143 and 128 and 124 and 130 and 135 and 126 and 125
Animal weight (Group 2, SCV-07 1 ug/kg sc qd, Day 24): 143 and 129 and 124 and 131 and 133 and 128 and 126 and 125
Animal weight (Group 2, SCV-07 1 ug/kg sc qd, Day 25): 147 and 131 and 129 and 137 and 140 and 130
Animal weight (Group 2, SCV-07 1 ug/kg sc qd, Day 26): 148 and 134 and 131 and 133 and 140 and 130
Animal weight (Group 2, SCV-07 1 ug/kg sc qd, Day 27): 150 and 135 and 134 and 139 and 144 and 133 and 132
Animal weight (Group 2, SCV-07 1 ug/kg sc qd, Day 28): 152 and 138 and 135 and 147 and 136 and 137
Animal weight (Group 2, SCV-07 1 ug/kg sc qd, Day -1): 78 and 94 and 93 and 79 and 82 and 84
Animal weight (Group 3, SCV-07 10 ug/kg sc qd, Day 0): 83 and 90 and 87 and 76 and 93 and 95 and 91
Animal weight (Group 3, SCV-07 10 ug/kg sc qd, Day 1): 84 and 91 and 87 and 76 and 93 and 94 and 96
Animal weight (Group 3, SCV-07 10 ug/kg sc qd, Day 2): 87 and 94 and 90 and 79 and 96 and 98 and 95 and 100
Animal weight (Group 3, SCV-07 10 ug/kg sc qd, Day 3): 89 and 98 and 92 and 82 and 100 and 104
Animal weight (Group 3, SCV-07 10 ug/kg sc qd, Day 4): 92 and 100 and 93 and 84 and 103 and 106
Animal weight (Group 3, SCV-07 10 ug/kg sc qd, Day 5): 96 and 105 and 97 and 89 and 103 and 108 and 113
Animal weight (Group 3, SCV-07 10 ug/kg sc qd, Day 6): 98 and 107 and 90 and 106 and 109 and 101 and 116
Animal weight (Group 3, SCV-07 10 ug/kg sc qd, Day 7): 100 and 108 and 101 and 92 and 112 and 109 and 115
Animal weight (Group 3, SCV-07 10 ug/kg sc qd, Day 8): 102 and 111 and 103 and 96 and 109 and 114 and 113 and 120
Animal weight (Group 3, SCV-07 10 ug/kg sc qd, Day 9): 104 and 112 and 105 and 96 and 111 and 116 and 114 and 122
Animal weight (Group 3, SCV-07 10 ug/kg sc qd, Day 10): 103 and 113 and 104 and 96 and 110 and 115 and 124
Animal weight (Group 3, SCV-07 10 ug/kg sc qd, Day 11): 111 and 117 and 109 and 101 and 113 and 121 and 129
Animal weight (Group 3, SCV-07 10 ug/kg sc qd, Day 12): 112 and 120 and 109 and 101 and 117 and 124 and 121 and 130
Animal weight (Group 3, SCV-07 10 ug/kg sc qd, Day 13): 111 and 118 and 109 and 100 and 113 and 122 and 121 and 130
Animal weight (Group 3, SCV-07 10 ug/kg sc qd, Day 14): 111 and 115 and 103 and 102 and 110 and 122 and 121 and 129
Animal weight (Group 3, SCV-07 10 ug/kg sc qd, Day 15): 112 and 110 and 101 and 105 and 111 and 120 and 121 and 131
Animal weight (Group 3, SCV-07 10 ug/kg sc qd, Day 16): 116 and 102 and 111 and 107 and 115 and 124 and 134
Animal weight (Group 3, SCV-07 10 ug/kg sc qd, Day 17): 116 and 107 and 102 and 104 and 111 and 123 and 125 and 133
Animal weight (Group 3, SCV-07 10 ug/kg sc qd, Day 18): 122 and 113 and 107 and 117 and 130 and 132 and 142
Animal weight (Group 3, SCV-07 10 ug/kg sc qd, Day 19): 124 and 115 and 111 and 116 and 119 and 132 and 137 and 146
Animal weight (Group 3, SCV-07 10 ug/kg sc qd, Day 20): 123 and 117 and 112 and 115 and 120 and 134 and 139 and 147
Animal weight (Group 3, SCV-07 10 ug/kg sc qd, Day 21): 122 and 119 and 113 and 120 and 136 and 139 and 149
Animal weight (Group 3, SCV-07 10 ug/kg sc qd, Day 22): 123 and 121 and 115 and 119 and 137 and 141 and 150
Animal weight (Group 3, SCV-07 10 ug/kg sc qd, Day 23): 126 and 122 and 117 and 125 and 140 and 145 and 155
Animal weight (Group 3, SCV-07 10 ug/kg sc qd, Day 24): 126 and 120 and 122 and 125 and 139 and 146 and 155
Animal weight (Group 3, SCV-07 10 ug/kg sc qd, Day 25): 132 and 128 and 122 and 127 and 145 and 146 and 160
Animal weight (Group 3, SCV-07 10 ug/kg sc qd, Day 26): 132 and 130 and 123 and 127 and 129 and 145 and 153 and 161
Animal weight (Group 3, SCV-07 10 ug/kg sc qd, Day 27): 133 and 120 and 131 and 132 and 149 and 155 and 165
Animal weight (Group 3, SCV-07 10 ug/kg sc qd, Day 28): 137 and 129 and 134 and 135 and 151 and 167
Animal weight (Group 3, SCV-07 10 ug/kg sc qd, Day -1): 81 and 87 and 85 and 76 and 90 and 91 and 86
Animal weight (Group 4, SCV-07 100 ug/kg sc qd, Day 0): 87 and 91 and 101 and 95 and 90 and 88 and 100
Animal weight (Group 4, SCV-07 100 ug/kg sc qd, Day 1): 87 and 98 and 101 and 93 and 86 and 89 and 99
Animal weight (Group 4, SCV-07 100 ug/kg sc qd, Day 2): 91 and 94 and 108 and 98 and 92 and 106
Animal weight (Group 4, SCV-07 100 ug/kg sc qd, Day 3): 93 and 95 and 110 and 101 and 97 and 109 and 94
Animal weight (Group 4, SCV-07 100 ug/kg sc qd, Day 4): 96 and 98 and 111 and 103 and 100 and 99 and 97
Animal weight (Group 4, SCV-07 100 ug/kg sc qd, Day 5): 100 and 101 and 119 and 104 and 106 and 118 and 105
Animal weight (Group 4, SCV-07 100 ug/kg sc qd, Day 6): 103 and 104 and 123 and 115 and 106 and 109 and 119
Animal weight (Group 4, SCV-07 100 ug/kg sc qd, Day 7): 105 and 124 and 118 and 108 and 111 and 122
Animal weight (Group 4, SCV-07 100 ug/kg sc qd, Day 8): 109 and 127 and 118 and 111 and 115 and 126 and 110
Animal weight (Group 4, SCV-07 100 ug/kg sc qd, Day 9): 111 and 112 and 132 and 124 and 114 and 120 and 127
Animal weight (Group 4, SCV-07 100 ug/kg sc qd, Day 10): 110 and 111 and 133 and 121 and 115 and 118 and 128 and 113
Animal weight (Group 4, SCV-07 100 ug/kg sc qd, Day 11): 117 and 119 and 137 and 130 and 120 and 129 and 136 and 118
Animal weight (Group 4, SCV-07 100 ug/kg sc qd, Day 12): 119 and 117 and 138 and 131 and 123 and 137 and 121
Animal weight (Group 4, SCV-07 100 ug/kg sc qd, Day 13): 117 and 115 and 134 and 132 and 121 and 127 and 133 and 118
Animal weight (Group 4, SCV-07 100 ug/kg sc qd, Day 14): 117 and 118 and 139 and 125 and 132 and 138 and 120
Animal weight (Group 4, SCV-07 100 ug/kg sc qd, Day 15): 116 and 117 and 138 and 126 and 133 and 139 and 119
Animal weight (Group 4, SCV-07 100 ug/kg sc qd, Day 16): 118 and 120 and 141 and 143 and 129 and 136 and 142 and 125
Animal weight (Group 4, SCV-07 100 ug/kg sc qd, Day 17): 118 and 119 and 142 and 143 and 130 and 136 and 140 and 125
Animal weight (Group 4, SCV-07 100 ug/kg sc qd, Day 18): 124 and 126 and 151 and 152 and 137 and 144 and 148 and 131
Animal weight (Group 4, SCV-07 100 ug/kg sc qd, Day 19): 124 and 126 and 153 and 155 and 139 and 149 and 151 and 134
Animal weight (Group 4, SCV-07 100 ug/kg sc qd, Day 20): 124 and 129 and 154 and 159 and 141 and 148 and 152 and 136
Animal weight (Group 4, SCV-07 100 ug/kg sc qd, Day 21): 123 and 132 and 156 and 159 and 143 and 150 and 153 and 137
Animal weight (Group 4, SCV-07 100 ug/kg sc qd, Day 22): 124 and 134 and 157 and 162 and 147 and 154 and 156 and 138
Animal weight (Group 4, SCV-07 100 ug/kg sc qd, Day 23): 124 and 135 and 161 and 164 and 151 and 156 and 141
Animal weight (Group 4, SCV-07 100 ug/kg sc qd, Day 24): 124 and 135 and 167 and 150 and 160 and 157 and 142
Animal weight (Group 4, SCV-07 100 ug/kg sc qd, Day 25): 127 and 138 and 167 and 173 and 156 and 165 and 164 and 147
Animal weight (Group 4, SCV-07 100 ug/kg sc qd, Day 26): 127 and 140 and 175 and 169 and 158 and 165 and 163 and 147
Animal weight (Group 4, SCV-07 100 ug/kg sc qd, Day 27): 129 and 143 and 169 and 175 and 160 and 167 and 164 and 149
Animal weight (Group 4, SCV-07 100 ug/kg sc qd, Day 28): 131 and 147 and 172 and 182 and 166 and 168 and 152
Animal weight (Group 4, SCV-07 100 ug/kg sc qd, Day -1): 84 and 87 and 97 and 88 and 86 and 95 and 85
